PubChem BioAssay AID1259254 – NCATS | 2017
The deposit covers about 59,000 reagents; this is a random part of them. About 1,550 of all reagents (2.6%) were called active. 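G2 share is only a proxy for re-replication; each gene was hit by three separate siRNAs, and active genes were retested.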 The raw values are shown without normalisation. The numbers tell different reagents against one gene apart. Not stated in the record: the amount of reagent.

Aim: 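Genome-wide screen for genes that prevent DNA re-replication in cancer cells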 (primary screen)
System: human HCT116 colorectal cancer cells
Reagents: single siRNA against human genes
Time to read-out: 3 days
Detection: 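Nuclei stained with Hoechst and imaged; cell-cycle phase assigned by DNA content; G2 share scaled per plate, non-targeting siRNA 0%, GMNN siRNA 100%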
Scale: G2 robust z-score and G2 cells, % of GMNN control: higher = more G2 cells, more excess DNA replication; raw share of cells in G2: higher = larger share of cells with G2 DNA content
Hit rule: 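An siRNA counts as active if its G2 robust z-score lies at least 5 MADs above the screen median; here such calls match roughly 38% of GMNN control or more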

G2 robust z-score	G2 cells, % of GMNN control	raw share of cells in G2 (%)	outcome	gene symbol	reagent
-0.181	1.7	4.19	inactive	CDHR3 (cadherin related family member 3)	1
-0.156	1.87	3.77	inactive	CDHR3 (cadherin related family member 3)	2
-0.208	1.5	3.67	inactive	CDHR3 (cadherin related family member 3)	3
0.899	9.29	8.03	inactive	IGSF21 (immunoglobin superfamily member 21)	1
1.98	16.9	8.29	inactive	IGSF21 (immunoglobin superfamily member 21)	2
-0.68	-1.82	2.35	inactive	IGSF21 (immunoglobin superfamily member 21)	3
0.198	4.36	6.79	inactive	CDC45 (cell division cycle 45)	1
0.167	4.14	6.42	inactive	CDC45 (cell division cycle 45)	2
6.47	48.5	22.1	active	CDC45 (cell division cycle 45)	3
-0.977	-3.9	1.94	inactive	LOC100128762 (TERF2 interacting protein pseudogene)	1
-0.152	1.9	3.76	inactive	LOC100128762 (TERF2 interacting protein pseudogene)	2
1.7	14.9	9.39	inactive	LOC100128762 (TERF2 interacting protein pseudogene)	3
1.44	13.1	7.31	inactive	MAP7D1 (MAP7 domain containing 1)	1
-0.957	-3.77	3.08	inactive	MAP7D1 (MAP7 domain containing 1)	2
0.112	3.76	5.7	inactive	MAP7D1 (MAP7 domain containing 1)	3
0.757	8.29	6.77	inactive	DEFB1 (defensin beta 1)	1
4.54	34.9	21.7	inactive	DEFB1 (defensin beta 1)	2
-0.719	-2.09	3.32	inactive	DEFB1 (defensin beta 1)	3
-0.69	-1.89	2.57	inactive	MDH2 (malate dehydrogenase 2)	1
-1.38	-6.73	2.8	inactive	MDH2 (malate dehydrogenase 2)	2
1.02	10.1	9.27	inactive	MDH2 (malate dehydrogenase 2)	3
0.715	8	7.3	inactive	IFT43 (intraflagellar transport 43)	1
-0.39	0.224	3.4	inactive	IFT43 (intraflagellar transport 43)	2
-0.757	-2.36	1.13	inactive	IFT43 (intraflagellar transport 43)	3
-0.605	-1.29	5.11	inactive	CARS2 (cysteinyl-tRNA synthetase 2, mitochondrial)	1
0.258	4.78	6.04	inactive	CARS2 (cysteinyl-tRNA synthetase 2, mitochondrial)	2
0.621	7.34	6.89	inactive	CARS2 (cysteinyl-tRNA synthetase 2, mitochondrial)	3
0.949	9.65	9.29	inactive	LCP1 (lymphocyte cytosolic protein 1)	1
0.822	8.75	8.74	inactive	LCP1 (lymphocyte cytosolic protein 1)	2
-0.102	2.25	3.94	inactive	LCP1 (lymphocyte cytosolic protein 1)	3
0.0418	3.26	6.62	inactive	NDUFB9 (NADH:ubiquinone oxidoreductase subunit B9)	1
-0.645	-1.57	4.85	inactive	NDUFB9 (NADH:ubiquinone oxidoreductase subunit B9)	2
-0.844	-2.97	2.22	inactive	NDUFB9 (NADH:ubiquinone oxidoreductase subunit B9)	3
-0.447	-0.176	4.72	inactive	LOC400756 (retired record)	1
1.75	15.3	9.38	inactive	LOC400756 (retired record)	2
-0.155	1.88	4.26	inactive	LOC400756 (retired record)	3
1.08	10.6	8.59	inactive	MRGBP (MRG domain binding protein)	1
0.0485	3.31	5.51	inactive	MRGBP (MRG domain binding protein)	2
-0.0449	2.65	3.98	inactive	MRGBP (MRG domain binding protein)	3
4.72	36.2	18.2	inactive	PAPPA (pappalysin 1)	1
-0.0054	2.93	5.94	inactive	PAPPA (pappalysin 1)	2
2.3	19.2	11.1	inactive	PAPPA (pappalysin 1)	3
3.64	28.6	17.1	inactive	RPS15A (ribosomal protein S15a)	1
4.35	33.6	17.5	inactive	RPS15A (ribosomal protein S15a)	2
2.88	23.2	11.8	inactive	RPS15A (ribosomal protein S15a)	3
1.64	14.5	9.91	inactive	RWDD2A (RWD domain containing 2A)	1
-0.952	-3.73	2.22	inactive	RWDD2A (RWD domain containing 2A)	2
-0.447	-0.174	1.77	inactive	RWDD2A (RWD domain containing 2A)	3
1.7	14.9	10.1	inactive	PYGL (glycogen phosphorylase L)	1
2.69	21.9	13	inactive	PYGL (glycogen phosphorylase L)	2
-1.04	-4.32	2.71	inactive	PYGL (glycogen phosphorylase L)	3
-0.413	0.0632	3.57	inactive	ZNF475 (zinc finger protein 475)	1
-0.368	0.375	3	inactive	ZNF475 (zinc finger protein 475)	2
0.643	7.49	6.44	inactive	ZNF475 (zinc finger protein 475)	3
1.13	10.9	7.27	inactive	BCL10-AS1 (BCL10 antisense RNA 1)	1
0.492	6.43	5.08	inactive	BCL10-AS1 (BCL10 antisense RNA 1)	2
-0.249	1.22	4.24	inactive	BCL10-AS1 (BCL10 antisense RNA 1)	3
-0.185	1.66	4.8	inactive	INHBE (inhibin subunit beta E)	1
0.257	4.78	6.55	inactive	INHBE (inhibin subunit beta E)	2
2.92	23.5	15.2	inactive	INHBE (inhibin subunit beta E)	3
1.52	13.7	11.2	inactive	TM4SF4 (transmembrane 4 L six family member 4)	1
-0.356	0.462	4.08	inactive	TM4SF4 (transmembrane 4 L six family member 4)	2
0.15	4.03	4.77	inactive	TM4SF4 (transmembrane 4 L six family member 4)	3
-0.21	1.49	4.93	inactive	TMEM63C (transmembrane protein 63C)	1
-0.555	-0.938	4.01	inactive	TMEM63C (transmembrane protein 63C)	2
1.61	14.3	7.56	inactive	TMEM63C (transmembrane protein 63C)	3
-0.638	-1.52	4.96	inactive	OVCH1 (ovochymase 1)	1
-0.138	1.99	5.13	inactive	OVCH1 (ovochymase 1)	2
-1.08	-4.6	2.55	inactive	OVCH1 (ovochymase 1)	3

Records above whose gene name starts with D or d:
G2 robust z-score	G2 cells, % of GMNN control	raw share of cells in G2 (%)	outcome	gene symbol	reagent
0.757	8.29	6.77	inactive	DEFB1 (defensin beta 1)	1
4.54	34.9	21.7	inactive	DEFB1 (defensin beta 1)	2
-0.719	-2.09	3.32	inactive	DEFB1 (defensin beta 1)	3
